Measurements taken from article PMC6948969.
For some assays here: No signal at the amounts used counts as a negative. For some assays here: The exact form of at least one protein or probe is not confirmed. For some assays here: A weaker result is weaker than the reference pair of the same experiment. For some assays here: Protein sequences can lack the tags named with them.

Protein sequences, listed by entry. Tags and fused reporters are not part of them. Residues count along the entry.
UniProt P02769, 25-607: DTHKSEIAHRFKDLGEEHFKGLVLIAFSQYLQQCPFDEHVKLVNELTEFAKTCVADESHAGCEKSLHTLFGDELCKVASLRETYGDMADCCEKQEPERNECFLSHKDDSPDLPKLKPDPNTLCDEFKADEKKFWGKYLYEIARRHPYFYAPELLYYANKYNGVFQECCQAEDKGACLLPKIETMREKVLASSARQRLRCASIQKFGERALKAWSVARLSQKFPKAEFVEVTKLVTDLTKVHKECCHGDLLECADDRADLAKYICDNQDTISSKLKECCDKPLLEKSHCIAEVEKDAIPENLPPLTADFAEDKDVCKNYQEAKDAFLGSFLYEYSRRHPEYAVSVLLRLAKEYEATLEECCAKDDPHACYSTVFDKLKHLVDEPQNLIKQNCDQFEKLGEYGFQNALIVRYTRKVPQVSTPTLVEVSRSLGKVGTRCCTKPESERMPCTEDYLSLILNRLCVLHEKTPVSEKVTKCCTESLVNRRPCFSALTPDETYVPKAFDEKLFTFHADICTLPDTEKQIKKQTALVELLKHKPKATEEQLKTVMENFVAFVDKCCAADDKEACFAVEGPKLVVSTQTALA

Assays:
[1] = molecular target: T1, Xyr1 (Xylanase regulator 1) (UniProt G0RLE8); test: competition with a labelled probe; conditions: equimolar unlabelled XRE does not weaken shift of XBS probe; EMSA/RNA-EMSA: 10 mM Tricine, 50 mM NaCl, pH 7.4, 22 C, 10 min; gel 0.5x TBE, 4 C; recombinant protein
T1 sequence (looked up, limits assumed): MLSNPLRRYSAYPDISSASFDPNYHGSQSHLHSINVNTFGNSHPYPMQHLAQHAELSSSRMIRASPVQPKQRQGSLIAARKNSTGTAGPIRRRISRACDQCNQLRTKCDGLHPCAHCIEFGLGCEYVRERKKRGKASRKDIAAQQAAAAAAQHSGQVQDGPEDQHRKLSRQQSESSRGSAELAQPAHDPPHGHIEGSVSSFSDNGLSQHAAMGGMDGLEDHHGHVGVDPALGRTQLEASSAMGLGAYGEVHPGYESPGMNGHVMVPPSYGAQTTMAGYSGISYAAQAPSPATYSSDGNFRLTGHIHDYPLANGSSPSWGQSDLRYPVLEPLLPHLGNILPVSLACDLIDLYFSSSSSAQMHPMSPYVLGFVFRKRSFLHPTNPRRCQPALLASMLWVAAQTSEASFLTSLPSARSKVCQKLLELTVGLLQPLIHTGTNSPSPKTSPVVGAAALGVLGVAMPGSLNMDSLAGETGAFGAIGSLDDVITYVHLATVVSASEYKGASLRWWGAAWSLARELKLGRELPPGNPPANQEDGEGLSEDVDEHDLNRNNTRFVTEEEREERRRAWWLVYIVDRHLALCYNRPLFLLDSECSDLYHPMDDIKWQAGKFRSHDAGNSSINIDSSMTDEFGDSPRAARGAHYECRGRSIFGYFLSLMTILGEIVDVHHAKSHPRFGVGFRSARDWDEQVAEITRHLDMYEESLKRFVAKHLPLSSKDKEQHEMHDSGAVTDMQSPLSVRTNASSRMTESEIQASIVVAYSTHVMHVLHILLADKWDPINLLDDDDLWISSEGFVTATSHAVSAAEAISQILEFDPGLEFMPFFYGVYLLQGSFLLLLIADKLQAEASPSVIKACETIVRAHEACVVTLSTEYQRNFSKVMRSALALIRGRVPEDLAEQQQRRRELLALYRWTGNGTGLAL

BSA = BSA (UniProt P02769); test: EMSA; conditions: 8-fold molar excess BSA; EMSA/RNA-EMSA: 10 mM Tricine, 50 mM NaCl, pH 7.4, 22 C, 10 min; gel 0.5x TBE, 4 C; commercial protein

Sequence: CACTGGATACCTACCTAGGTAGTCTGCAGCAGAAG (double strand) [XRE probe (xyr1 promoter)]
- binding result [1]: binds more weakly
- binding result (BSA): no binding
